Assay results: the supplement of paper PMC11438910
The other results are listed elsewhere or left out. Only a few entries rise above the background.

Key:
Experiment in all cases: fluorescence intensity of antibody binding to polysaccharide-coupled beads; higher = stronger binding
[1] = target: pneumococcal polysaccharide Pn34
[2] = target: pneumococcal polysaccharide Pn35A
[3] = target: pneumococcal polysaccharide Pn35B
[4] = target: pneumococcal polysaccharide Pn35C
[5] = target: pneumococcal polysaccharide Pn35F
[6] = target: pneumococcal polysaccharide Pn36
[7] = target: pneumococcal polysaccharide Pn37
[8] = target: pneumococcal polysaccharide Pn38
[9] = target: pneumococcal polysaccharide Pn39
[10] = target: pneumococcal polysaccharide Pn4
[11] = target: pneumococcal polysaccharide Pn40
[12] = target: pneumococcal polysaccharide Pn41A
[13] = antibody concentration 0.1 ng/mL
[14] = antibody concentration 0.534724 ng/mL
[15] = antibody concentration 2.8593 ng/mL
[16] = antibody concentration 15.2894 ng/mL
[17] = antibody concentration 81.7561 ng/mL
[18] = antibody concentration 437.17 ng/mL
[19] = antibody concentration 2337.65 ng/mL
[20] = antibody concentration 12500 ng/mL

B1: 4-173.5 (protein)
chain 1: QLQLQESGPGLVKPSETLSLTCAVSGDSISSNYWSWIRQPPGKGLEWIGRISDGGGSTDYNPSLKSRVTISTDTSKNQFSLKLNSVTAADTAVYFCARGSYRVDYWGQGVLVTVSS
chain 2: QAALTQPPSMSGSPGQSVTISCTGASSDIGGYNRVSWYQQHPANAPKLMIYDVSKRPSGVSDRFSGSKSGNTASLTISGLQADDEADYYCSSYAHINTALFGGGTRLTVL
- fluorescence intensity [1, 13]: 13.5 MFI
- fluorescence intensity [1, 14]: 13.8 MFI
- fluorescence intensity [1, 15]: 16.2 MFI
- fluorescence intensity [1, 16]: 22.8 MFI
- fluorescence intensity [1, 17]: 85.5 MFI
- fluorescence intensity [1, 18]: 502 MFI
- fluorescence intensity [1, 19]: 1900 MFI
- fluorescence intensity [1, 20]: 3080 MFI
- fluorescence intensity [2, 13]: 16.5 MFI
- fluorescence intensity [2, 14]: 17 MFI
- fluorescence intensity [2, 15]: 22.8 MFI
- fluorescence intensity [2, 16]: 47 MFI
- fluorescence intensity [2, 17]: 237 MFI
- fluorescence intensity [2, 18]: 1320 MFI
- fluorescence intensity [2, 19]: 4280 MFI
- fluorescence intensity [2, 20]: 6690 MFI
- fluorescence intensity [3, 13]: 18.5 MFI
- fluorescence intensity [3, 14]: 17 MFI
- fluorescence intensity [3, 15]: 20 MFI
- fluorescence intensity [3, 16]: 31.5 MFI
- fluorescence intensity [3, 17]: 136 MFI
- fluorescence intensity [3, 18]: 704 MFI
- fluorescence intensity [3, 19]: 2240 MFI
- fluorescence intensity [3, 20]: 3250 MFI
- fluorescence intensity [4, 13]: 20 MFI
- fluorescence intensity [4, 14]: 18 MFI
- fluorescence intensity [4, 15]: 21.5 MFI
- fluorescence intensity [4, 16]: 27.5 MFI
- fluorescence intensity [4, 17]: 88 MFI
- fluorescence intensity [4, 18]: 517 MFI
- fluorescence intensity [4, 19]: 2270 MFI
- fluorescence intensity [4, 20]: 3630 MFI
- fluorescence intensity [5, 13]: 21.2 MFI
- fluorescence intensity [5, 14]: 17.5 MFI
- fluorescence intensity [5, 15]: 18.5 MFI
- fluorescence intensity [5, 16]: 29.5 MFI
- fluorescence intensity [5, 17]: 124 MFI
- fluorescence intensity [5, 18]: 561 MFI
- fluorescence intensity [5, 19]: 2070 MFI
- fluorescence intensity [5, 20]: 2980 MFI
- fluorescence intensity [6, 13]: 15 MFI
- fluorescence intensity [6, 14]: 16.5 MFI
- fluorescence intensity [6, 15]: 17 MFI
- fluorescence intensity [6, 16]: 26 MFI
- fluorescence intensity [6, 17]: 94.5 MFI
- fluorescence intensity [6, 18]: 484 MFI
- fluorescence intensity [6, 19]: 1990 MFI
- fluorescence intensity [6, 20]: 3600 MFI
- fluorescence intensity [7, 13]: 28 MFI
- fluorescence intensity [7, 14]: 26 MFI
- fluorescence intensity [7, 15]: 28.5 MFI
- fluorescence intensity [7, 16]: 38 MFI
- fluorescence intensity [7, 17]: 112 MFI
- fluorescence intensity [7, 18]: 535 MFI
- fluorescence intensity [7, 19]: 2210 MFI
- fluorescence intensity [7, 20]: 4650 MFI
- fluorescence intensity [8, 13]: 26 MFI
- fluorescence intensity [8, 14]: 26.5 MFI
- fluorescence intensity [8, 15]: 27.2 MFI
- fluorescence intensity [8, 16]: 34 MFI
- fluorescence intensity [8, 17]: 104 MFI
- fluorescence intensity [8, 18]: 403 MFI
- fluorescence intensity [8, 19]: 1310 MFI
- fluorescence intensity [8, 20]: 2260 MFI
- fluorescence intensity [9, 13]: 18.2 MFI
- fluorescence intensity [9, 14]: 18.2 MFI
- fluorescence intensity [9, 15]: 19 MFI
- fluorescence intensity [9, 16]: 24.5 MFI
- fluorescence intensity [9, 17]: 81.5 MFI
- fluorescence intensity [9, 18]: 445 MFI
- fluorescence intensity [9, 19]: 1910 MFI
- fluorescence intensity [9, 20]: 3140 MFI
- fluorescence intensity [10, 13]: 18.5 MFI
- fluorescence intensity [10, 14]: 18 MFI
- fluorescence intensity [10, 15]: 19 MFI
- fluorescence intensity [10, 16]: 22.8 MFI
- fluorescence intensity [10, 17]: 41 MFI
- fluorescence intensity [10, 18]: 129 MFI
- fluorescence intensity [10, 19]: 498 MFI
- fluorescence intensity [10, 20]: 1090 MFI
- fluorescence intensity [11, 13]: 16.5 MFI
- fluorescence intensity [11, 14]: 17 MFI
- fluorescence intensity [11, 15]: 21.5 MFI
- fluorescence intensity [11, 16]: 46.8 MFI
- fluorescence intensity [11, 17]: 217 MFI
- fluorescence intensity [11, 18]: 1070 MFI
- fluorescence intensity [11, 19]: 3530 MFI
- fluorescence intensity [11, 20]: 5800 MFI
- fluorescence intensity [12, 13]: 26 MFI
- fluorescence intensity [12, 14]: 22.2 MFI
